Data taken from paper PMC5021139 (Journal of Neuroendocrinology, 2016).
Results are given in words; binding and its absence hold for the method and conditions named. In cells and extracts the contact can be indirect.

Protein sequences, listed by entry. Tags and fused reporters are not part of them.
UniProt P30559: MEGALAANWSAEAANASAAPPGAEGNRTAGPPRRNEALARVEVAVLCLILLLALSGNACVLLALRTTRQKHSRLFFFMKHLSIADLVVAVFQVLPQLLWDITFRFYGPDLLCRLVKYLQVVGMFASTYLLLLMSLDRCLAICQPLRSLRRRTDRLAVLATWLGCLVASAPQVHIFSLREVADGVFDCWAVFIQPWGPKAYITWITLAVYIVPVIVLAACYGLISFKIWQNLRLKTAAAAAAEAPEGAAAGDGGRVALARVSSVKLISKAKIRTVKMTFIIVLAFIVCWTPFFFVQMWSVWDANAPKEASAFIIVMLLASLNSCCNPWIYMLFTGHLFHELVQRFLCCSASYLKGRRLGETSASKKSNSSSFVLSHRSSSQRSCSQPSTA

Biological target: human oxytocin receptor fused to Renilla luciferase (hOXTR‐Rluc) (human) (UniProt P30559)
Assay: condition: only with carbetocin (10 μM) as the agonist in place of oxytocin; FRET or BRET; kinetic BRET1 in HEK293 cells co-transfected with hOXTR-Rluc (donor) and β-arrestin1- or β-arrestin2-Venus (acceptor); cells in PBS with 0.1% glucose at room temperature; coelenterazine h added 8 min before carbetocin (10 μM); read in real time for 5 min

B1: β‐arrestin1‐Venus (natural protein, UniProt P49407 1-418, looked up)
chain: MGDKGTRVFKKASPNGKLTVYLGKRDFVDHIDLVDPVDGVVLVDPEYLKERRVYVTLTCAFRYGREDLDVLGLTFRKDLFVANVQSFPPAPEDKKPLTRLQERLIKKLGEHAYPFTFEIPPNLPCSVTLQPGPEDTGKACGVDYEVKAFCAENLEEKIHKRNSVRLVIRKVQYAPERPGPQPTAETTRQFLMSDKPLHLEASLDKEIYYHGEPISVNVHVTNNTNKTVKKIKISVRQYADICLFNTAQYKCPVAMEEADDTVAPSSTFCKVYTLTPFLANNREKRGLALDGKLKHEDTNLASSTLLREGANREILGIIVSYKVKVKLVVSRGGLLGDLASSDVAVELPFTLMHPKPKEEPPHREVPENETPVDTNLIELDTNDDDIVFEDFARQRLKGMKDDKEEEEDGTGSPQLNNR
notes: β-arrestin1; Venus (yellow variant of GFP) fused to its C-terminus; vector provided by Professor M. Locati; source: HEK293, transfected (PEI), in living cells; not shown: Venus, C-terminal, kept
binding: no binding
